The source of these data is US9326993B2, “Treatment of pulmonary and pleural fibrosis using HSP27 inhibitors” (ONCOGENEX TECHNOLOGIES INC., priority 2011, dated 2016).

This data set concerns mice lung tissue. The data set can be described thus: Bleomycin intra-tracheal pulmonary fibrosis model. Format: in vivo. Particulars: intra-tracheal administration.

With bleomycin, the “mesenchymal marker α-SMA in lung tissue (immunoblotting)” value was “induction”. Besides, where the note is “21 days”, the “HSP27 expression in lung tissue (immunoblotting)” value is given as “significant HSP27 overexpression”.
